## Library screening results

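Viability assay of Plasmodium falciparum sporozoites; the read-out is not stated. The concentration is filed as 10 mM, unlikely as a test dose, so the dose is not known. Direction is inferred from retests: higher values go with lower viability. Strong results were mostly tested again. About 34,000 compounds were tested under these conditions; 0.84% (about 280) showed 50% or more at least once.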

Results are given as percent effect. How 0% and 100% were set is not recorded. Most values in the screen are low, and negative values occur. The compounds are a random part of those screened. Two or more numbers in one place are separate tests of the same structure; such repeats can differ widely.

Compound,effect
O=C(CCn1ccnc1)N1CC[C@H](Oc2cccc(F)c2)[C@@H](O)CC1,6.609
NC(=O)c1cc(NC(=O)NCCc2cc(F)cc(F)c2)ccc1F,-16.71
Cc1cc(NCc2cc3n(n2)CCCN(S(C)(=O)=O)C3)ncn1,1.143
Cc1cc(NCC2CCN(c3ccccc3)C2)n2ncnc2n1 (centres undefined),8.99
CC(C)(O)CN1CCN(C(=O)c2cc(Cl)cc3cccnc23)CC1,-8.696
Cn1nccc1C(=O)N1CCC(c2nnsc2S(C)(=O)=O)CC1,5.513
Cl.O=C(CCc1cccc(C2CCNCC2)n1)N1CCCCC1,-3.261
Cc1cc(-c2ccc(=O)n(C3CCN(C(=O)C4CCC4)CC3)n2)c(C)o1,9.207
CC(C)NC(=O)[C@@H]1CN(C(=O)C2CC2)C[C@]12Cc1ccccc1C(=O)N2,-6.08
Cc1nn2cccnc2c1C(=O)N1CCCC(Nc2ccccc2)C1 (centres undefined),-13.97
CN1CC(=O)N(c2cccc(F)c2)CC12CCN(CC1CCOCC1)C2.O=C(O)C(F)(F)F.O=C(O)C(F)(F)F (centres undefined),-18.44
O=C(CCc1ccccc1F)NS(=O)(=O)c1ccc2c(c1)OCCCO2,-24.34
Cc1nc(C)n(CC2CCCCN2CC(=O)Nc2cccnc2)n1 (centres undefined),-6.719
CCn1cnnc1C1CCN(C(=O)c2cc(C)c(C)s2)CC1,13.03
CCCNc1ncc(C2CC(=O)NCc3nc4ccccn4c32)cn1 (centres undefined),-5.182
Cc1noc(C)c1CNC(=O)N1CCN(Cc2cscn2)CC1,6.101
COc1ccc(CCNC(=O)C2CCC(Cn3cnnn3)CC2)cc1 (centres undefined),-2.193
O=C(O)C(F)(F)F.[H][C@@]12COC[C@]1(COCC(=O)N(C)C)CN(Cc1csc(C)n1)C2,-1.842
Cc1ccc(CNc2nc(O)cc(C3CC(=O)N(C)C3)n2)cc1 (centres undefined),9.814
O=C(CN1CCCC1c1noc(C2CC2)n1)N1CCc2ccccc21 (centres undefined),13.67
Cc1noc(C)c1CN1CCN(Cc2cccnc2)c2ncccc2C1.O=C(O)C(F)(F)F.O=C(O)C(F)(F)F.O=C(O)C(F)(F)F,0.7812
Cc1cc(C2CCCN(CCNS(=O)(=O)c3ccccc3)C2)n[nH]1 (centres undefined),13.98
Cc1csc(CNC(=O)Cc2ccc3c(c2)OCCO3)n1,27.95 & 4.253 & 30.1
O=C(C1CCOCC1)N1CCc2ncc(CN3CCOCC3)n2CC1.O=C(O)C(F)(F)F,-2.663
O=C(O)C(F)(F)F.c1coc(COCc2ncn3c2CN(Cc2cccs2)CCC3)c1,7.239
Cc1cc(CNc2nccc(N)n2)c2[nH]c(C)c(C)c2c1,-5.692
CC(C)N1CCN(C(=O)c2ccc(Cn3ccccc3=O)o2)CC1,-1.877
FC1(F)CCN(Cc2cccnc2)CC12CCN(c1ccccc1)C2.O=C(O)C(F)(F)F.O=C(O)C(F)(F)F.O=C(O)C(F)(F)F (centres undefined),9.968
Cc1cc(NC(=O)NCc2cccnc2OC(C)C)no1,3.67
CC[C@@H](C)[C@@H](N)C(=O)Nc1cccc(-c2cnc(NCCO)nc2)c1,-5.673
CCc1c(C(=O)O)nnn1-c1cc(C)ccc1C,3.571
Cc1cnn(CC2CCCCN2C(=O)c2cc(Cl)c[nH]2)c1 (centres undefined),3.378
[H][C@]12CC[C@@]3(N=C(CC)N(CC(C)C)C3=O)[C@@]1([H])CN(S(=O)(=O)CC)C2,-14.64
CC(C(=O)NCc1ccc(N2CCCC2)nc1)n1cncn1 (centres undefined),6.41
O=C1N(CCCc2ccccc2)CCCC1(O)CNCc1ccccc1 (centres undefined),1.384
CC(=O)Nc1nc(C(=O)NCc2ccc(N3CCCCCC3)nc2)cs1,-7.16
Cl.O=C(CCC1CCCC1)NCCn1nc(C2CCNC2)c2cccnc21 (centres undefined),-3.806
CC(C)CN(CCc1ccccc1)Cc1nc2c(cnn2C)c(=O)[nH]1,8.525
CCn1cnnc1C1CCCN(C(=O)COc2ccc(Cl)cc2)C1 (centres undefined),-4.792
CC1CN(CC(=O)NC(=O)NCc2ccccc2)CCO1 (centres undefined),-2.142
Cc1cc(C)n(CC2CCCN2C(=O)c2ccc(NC3CC3)nc2)n1 (centres undefined),10.47
c1ncn(CC2CCCN(Cc3nnc(C4CC4)o3)C2)n1 (centres undefined),6.545
CCCN1CCN(C(=O)C(C)n2cc(Br)cn2)CC1 (centres undefined),4.798
Cc1nn(C)cc1C(=O)N1CCC(C(=O)c2nc3ccccc3s2)CC1,4.427
CCc1ccc(CNc2cc(N3CCCC3CO)ncn2)s1 (centres undefined),-1.485
CCn1nc(C)c2ncnc(NCC(=O)N3CCOCC3)c21,-3.289
CC(C)(C)c1n[nH]c(C2CN(Cc3nnc(C4CCC4)o3)CCO2)n1 (centres undefined),4.568
Cc1cc(NCc2cc3n(n2)CCCN(C(=O)N(C)C)C3)ncn1,-6.757
O=C(c1cccc(Cn2ccnc2)c1)N1CCCC(n2cccn2)C1 (centres undefined),7.587
CCNC(=O)[C@@H]1C[C@@H](NC(=O)Cc2ccccn2)CN1CCCSC,10.2
Cc1nc(CC(=O)N2CCCC2Cn2cccn2)cs1 (centres undefined),-4.075
COc1ccccc1OC1CCN(Cc2cnc(N(C)C)nc2)CC1,8.004
CNc1ncc(CN(C)Cc2cc(O)c3cc(C)cc(C)c3n2)cn1,-0.5329
CCc1nnc(Nc2cccc(C3CCN(C)CC3)n2)s1,7.186
CCn1ccnc1CN1CCCN(C(=O)c2sccc2C#N)CC1,0.5757
CCN1CC(C)(C)CN(C(=O)CCc2ccccc2)CC1=O,-24.8
Cc1cc(C)n(CC2CN(CCOc3ccccc3C#N)CCO2)n1 (centres undefined),-6.732
CCN(CC)CC1CN(CCc2ccccc2)Cc2nccn2C1.O=C(O)C(F)(F)F.O=C(O)C(F)(F)F (centres undefined),-7.39
Cc1ccc(N2CCC(c3cc(Cc4ccccc4)n[nH]3)CC2)nn1,-26.51 & -23.07 & -1.817
Nc1ncc(CN2CCC(O)(c3ccccc3F)CC2)cn1,-3.641
Cc1cccnc1CN1CCN(C(=O)c2cnn(C(C)C)c2)CC1,-8.333
O=C1N(Cc2cccc(F)c2F)CCCC1(O)CNCc1ccccc1 (centres undefined),7.456
O=C(O)C(F)(F)F.O=C(O)C(F)(F)F.O=C(O)C(F)(F)F.[H][C@@]12CN(Cc3cccnc3)C[C@@]1([H])N(Cc1ccncc1)C(=O)CO2,-13.38
CCC(CC)c1cc(C(=O)N2CCCC(n3cncn3)C2)on1 (centres undefined),3.807
CCCOc1cccc(CNC(=O)CN2CCN(C)CC2C)c1 (centres undefined),-11.95
CC(=O)N1CCC2(CN(CC3CCCC3)C2)C1.O=C(O)C(F)(F)F,1.369
COCCCNc1c(-c2ccccc2)c(=O)c1=O,5.819

Some entries from above, unchanged:

| Compound | effect |
|---|---|
| `CCn1ccnc1CN1CCCN(C(=O)c2sccc2C#N)CC1` | 0.5757 |
| `O=C(c1cccc(Cn2ccnc2)c1)N1CCCC(n2cccn2)C1` (centres undefined) | 7.587 |
| `CC(C)(C)c1n[nH]c(C2CN(Cc3nnc(C4CCC4)o3)CCO2)n1` (centres undefined) | 4.568 |
| `Cc1cc(C2CCCN(CCNS(=O)(=O)c3ccccc3)C2)n[nH]1` (centres undefined) | 13.98 |
| `CCCOc1cccc(CNC(=O)CN2CCN(C)CC2C)c1` (centres undefined) | -11.95 |
| `O=C(O)C(F)(F)F.O=C(O)C(F)(F)F.O=C(O)C(F)(F)F.[H][C@@]12CN(Cc3cccnc3)C[C@@]1([H])N(Cc1ccncc1)C(=O)CO2` | -13.38 |
| `O=C1N(CCCc2ccccc2)CCCC1(O)CNCc1ccccc1` (centres undefined) | 1.384 |
| `Nc1ncc(CN2CCC(O)(c3ccccc3F)CC2)cn1` | -3.641 |

Source: ChEMBL document CHEMBL3988442, “University of Dundee, Small-Polar-MMV Screening Library” (2021).